Source: patent US7670767B1, “Genetic alterations associated with cancer” (The Regents of the University of California, priority 1997, dated 2010)
Entries after “also recorded” stand apart in the source; their conditions may differ. At least one compound was matched to its structure with a doubt left.

Columns and labels:
OVCAR3 cells = assay: MTT viability assay; format: cell-based, human; details: OVCAR3 as compared to NOE or MCF10F, 96 hours
[1] = tested on: OVCAR3 ovarian cancer cell line; assay: thymidine incorporation assay (cell proliferation); format: cell-based, human
[2] = tested on: cisplatin-treated ovarian cancer cells; details: after treatment with rapamycin; cited from earlier work

SMILES | viability as assessed by the ability to convert the MTT dye (OVCAR3 cells) | cellular proliferation as indicated by thymidine incorporation ([1]; OVCAR3, 0.5% serum, 48 h with LY294002 then 18 h [3H]thymidine) | sensitivity to the effect of LY294002, OVCAR3 compared with NOE, MCF10A or MCF10F ([1]; OVCAR3 vs NOE, MCF10A, MCF10F (normal PIK3CA copy number)) | survival of cisplatin-treated ovarian cancer cells [2]
O=c1cc(N2CCOCC2)oc2c(-c3ccccc3)cccc12 [LY294002] | marked decrease; also recorded: strong inhibition | marked decrease; also recorded: strong inhibition | more sensitive | –
CO[C@H]1C[C@@H]2CC[C@@H](C)[C@@](O)(O2)C(=O)C(=O)N2CCCC[C@H]2C(=O)O[C@H]([C@H](C)C[C@@H]2CC[C@@H](O)[C@H](OC)C2)CC(=O)[C@H](C)/C=C(\C)[C@@H](O)[C@@H](OC)C(=O)[C@H](C)C[C@H](C)/C=C/C=C/C=C/1C [rapamycin, Rapamycin] | – | – | – | survival is decreased
